Measurements from US20100266604A1, “USE OF TAM RECEPTOR INHIBITORS AS IMMUNOENHANCERS AND TAM ACTIVATORS AS IMMUNOSUPPRESSORS” (The Salk Institute for Biological Studies, priority 2007, published 2010).
No constants are given. Whether binding was seen depends on the method and setting. In cells and extracts the contact can be indirect. Some results given as binding are weak or reduced against the parent protein; the word gives no strength.

Assays:
IFNAR2 (mouse) = molecular target: T1, IFNAR2 (mouse) (UniProt O35664); assay: co-immunoprecipitation from BM-DC whole cell lysates, untreated (-) or treated 20 min with 50 nM Gas6 (+); IP with antibody to the IFN receptor R2 chain, immunoblot for STAT1; the association may be direct or indirect
T1 sequence (receptor chain, looked up): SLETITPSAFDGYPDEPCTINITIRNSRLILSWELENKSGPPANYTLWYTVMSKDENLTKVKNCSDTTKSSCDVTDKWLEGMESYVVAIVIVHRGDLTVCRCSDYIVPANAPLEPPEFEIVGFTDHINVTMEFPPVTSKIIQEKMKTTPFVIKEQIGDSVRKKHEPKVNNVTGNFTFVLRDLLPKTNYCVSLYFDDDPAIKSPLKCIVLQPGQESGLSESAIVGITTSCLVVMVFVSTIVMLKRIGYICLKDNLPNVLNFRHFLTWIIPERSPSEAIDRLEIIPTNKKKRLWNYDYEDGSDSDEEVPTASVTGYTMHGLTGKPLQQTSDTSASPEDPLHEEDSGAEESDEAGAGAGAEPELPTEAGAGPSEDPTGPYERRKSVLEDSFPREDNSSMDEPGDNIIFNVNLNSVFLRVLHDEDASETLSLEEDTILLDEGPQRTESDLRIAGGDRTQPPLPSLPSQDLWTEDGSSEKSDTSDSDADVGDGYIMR

[1] = molecular target: T2, R1 chain of the type I IFN receptor (mouse, endogenous in BM-DCs) (mouse) (UniProt P33896); assay: co-immunoprecipitation from BM-DC lysates, untreated or treated with 50 nM Gas6 for 20 min; immunoblot
T2 sequence (looked up): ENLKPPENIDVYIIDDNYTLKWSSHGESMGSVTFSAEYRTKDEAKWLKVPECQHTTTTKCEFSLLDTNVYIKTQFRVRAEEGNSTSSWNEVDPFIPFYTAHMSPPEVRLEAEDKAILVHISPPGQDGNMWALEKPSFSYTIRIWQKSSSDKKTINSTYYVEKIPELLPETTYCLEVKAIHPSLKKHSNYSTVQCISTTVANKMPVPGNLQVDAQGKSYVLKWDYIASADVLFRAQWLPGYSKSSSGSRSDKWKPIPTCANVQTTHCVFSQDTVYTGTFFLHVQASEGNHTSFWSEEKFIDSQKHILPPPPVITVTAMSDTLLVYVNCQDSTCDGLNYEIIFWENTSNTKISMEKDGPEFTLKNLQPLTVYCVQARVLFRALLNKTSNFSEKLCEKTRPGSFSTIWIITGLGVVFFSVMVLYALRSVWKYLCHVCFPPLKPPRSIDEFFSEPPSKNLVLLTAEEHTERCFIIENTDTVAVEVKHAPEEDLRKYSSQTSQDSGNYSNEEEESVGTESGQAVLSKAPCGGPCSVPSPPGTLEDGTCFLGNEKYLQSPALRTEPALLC

[2] = molecular target: T2, R1 chain of the type I IFN receptor (mouse, endogenous in BM-DCs) (mouse); assay: reciprocal co-immunoprecipitation (IP of Axl, blot with anti-IFNAR1) from BM-DC lysates
[3] = molecular target: T2, R1 chain of the type I IFN receptor (mouse, endogenous in BM-DCs) (mouse); assay: co-immunoprecipitation from BM-DC lysates (FIG. 4J), as summarised in the discussion
[4] = molecular target: T2, R1 chain of the type I IFN receptor (mouse, endogenous in BM-DCs) (mouse); assay: co-immunoprecipitation from BM-DC lysates (FIG. 4J), as summarised in Example 9

B1: STAT1 (protein, mouse, UniProt P42225 2-749, looked up)
transcription factor: SQWFELQQLDSKFLEQVHQLYDDSFPMEIRQYLAQWLEKQDWEHAAYDVSFATIRFHDLLSQLDDQYSRFSLENNFLLQHNIRKSKRNLQDNFQEDPVQMSMIIYNCLKEERKILENAQRFNQAQEGNIQNTVMLDKQKELDSKVRNVKDQVMCIEQEIKTLEELQDEYDFKCKTSQNREGEANGVAKSDQKQEQLLLHKMFLMLDNKRKEIIHKIRELLNSIELTQNTLINDELVEWKRRQQSACIGGPPNACLDQLQTWFTIVAETLQQIRQQLKKLEELEQKFTYEPDPITKNKQVLSDRTFLLFQQLIQSSFVVERQPCMPTHPQRPLVLKTGVQFTVKSRLLVKLQESNLLTKVKCHFDKDVNEKNTVKGFRKFNILGTHTKVMNMEESTNGSLAAELRHLQLKEQKNAGNRTNEGPLIVTEELHSLSFETQLCQPGLVIDLETTSLPVVVISNVSQLPSGWASILWYNMLVTEPRNLSFFLNPPCAWWSQLSEVLSWQFSSVTKRGLNADQLSMLGEKLLGPNAGPDGLIPWTRFCKENINDKNFSFWPWIDTILELIKNDLLCLWNDGCIMGFISKERERALLKDQQPGTFLLRFSESSREGAITFTWVERSQNGGEPDFHAVEPYTKKELSAVTFPDIIRNYKVMAAENIPENPLKYLYPNIDKDHAFGKYYSRPKEAPEPMELDDPKRTGYIKTELISVSEVHPSRLQTTDNLLPMSPEEFDEMSRIVGPEFDSMMSTV
binding (IFNAR2 (mouse)): binds

B2: Axl (mouse, endogenous in bone marrow-derived dendritic cells) (receptor, UniProt Q00993 19-888, looked up)
chain: AHKDTQTEAGSPFVGNPGNITGARGLTGTLRCELQVQGEPPEVVWLRDGQILELADNTQTQVPLGEDWQDEWKVVSQLRISALQLSDAGEYQCMVHLEGRTFVSQPGFVGLEGLPYFLEEPEDKAVPANTPFNLSCQAQGPPEPVTLLWLQDAVPLAPVTGHSSQHSLQTPGLNKTSSFSCEAHNAKGVTTSRTATITVLPQRPHHLHVVSRQPTELEVAWTPGLSGIYPLTHCNLQAVLSDDGVGIWLGKSDPPEDPLTLQVSVPPHQLRLEKLLPHTPYHIRISCSSSQGPSPWTHWLPVETTEGVPLGPPENVSAMRNGSQVLVRWQEPRVPLQGTLLGYRLAYRGQDTPEVLMDIGLTREVTLELRGDRPVANLTVSVTAYTSAGDGPWSLPVPLEPWRPGQGQPLHHLVSEPPPRAFSWPWWYVLLGALVAAACVLILALFLVHRRKKETRYGEVFEPTVERGELVVRYRVRKSYSRRTTEATLNSLGISEELKEKLRDVMVDRHKVALGKTLGEGEFGAVMEGQLNQDDSILKVAVKTMKIAICTRSELEDFLSEAVCMKEFDHPNVMRLIGVCFQGSDREGFPEPVVILPFMKHGDLHSFLLYSRLGDQPVFLPTQMLVKFMADIASGMEYLSTKRFIHRDLAARNCMLNENMSVCVADFGLSKKIYNGDYYRQGRIAKMPVKWIAIESLADRVYTSKSDVWSFGVTMWEIATRGQTPYPGVENSEIYDYLRQGNRLKQPVDCLDGLYALMSRCWELNPRDRPSFAELREDLENTLKALPPAQEPDEILYVNMDEGGSHLEPRGAAGGADPPTQPDPKDSCSCLTAADVHSAGRYVLCPSTAPGPTLSADRGCPAPPGQEDGA
binding [1]: binds | binding [2]: binds | binding [3]: binds | binding [4]: binds
